PubChem BioAssay AID1259405 – NCATS, 2018

Assay: 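Knock-downs that lift recombinant protein yield in hamster ovary cells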 (primary screen)
System: Chinese hamster CHO-K1 ovary cells with stable secreted eGFP expression
Reagent: single siRNA against mouse genes, 0.8 pmol siRNA per well (2 µl of 400 nM stock)
Time to read-out: 3 days
Measured: 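Per-well intracellular GFP measured by laser scanning cytometry, plus viability from ATP luminescence, each relative to plate median of non-targeting control wells, in %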
Scale: GFP, % of control: higher = more GFP per well, higher productivity
Rule for the call: 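a knock-down is called active if GFP reaches 120% or more of non-targeting control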
The whole screen tested about 50,000 reagents; this is an unselected part. About 4,000 of all reagents (8%) were called active. 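Mouse siRNA library applied to hamster cells; one well for each siRNA.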 The numbers tell different reagents against one gene apart. Further read-outs or replicates are left out here. Reagent sequences are not shown.

GFP, % of control, by gene symbol and reagent
5930403N24Rik (RIKEN cDNA 5930403N24 gene): #1 139 active; #2 72.4 inactive; #3 78.3 inactive
Grk1 (G protein-coupled receptor kinase 1): #1 122 active
Swt1 (SWT1 RNA endoribonuclease homolog (S. cerevisiae)): #1 69.1 inactive; #2 53.4 inactive; #3 77.7 inactive
Klhl28 (kelch-like 28): #1 87.5 inactive; #2 84.6 inactive; #3 130 active
Bspry (B-box and SPRY domain containing): #1 79.8 inactive; #2 110 inactive
Gc (vitamin D binding protein): #1 112 inactive; #2 74.8 inactive; #3 105 inactive
Fech (ferrochelatase): #1 48.8 inactive; #2 66.1 inactive; #3 74.3 inactive
Or13c25 (olfactory receptor family 13 subfamily C member 25): #1 78.2 inactive; #2 113 inactive; #3 25.7 inactive
Zfp946 (zinc finger protein 946): #1 103 inactive; #2 89.5 inactive; #3 72.4 inactive
Yy1 (YY1 transcription factor): #1 75.8 inactive; #2 44.5 inactive; #3 44.8 inactive
Snu13 (SNU13 homolog, small nuclear ribonucleoprotein (U4/U6.U5)): #1 45.5 inactive; #2 74.8 inactive; #3 90.2 inactive
Ube2h (ubiquitin-conjugating enzyme E2H): #1 99.3 inactive; #2 83.7 inactive; #3 59 inactive
Il1rap (interleukin 1 receptor accessory protein): #1 136 active; #2 52.2 inactive; #3 76.4 inactive
Dbpht2 (DNA binding protein with his-thr domain): #1 78.2 inactive; #2 108 inactive; #3 55.5 inactive
Gpr63 (G protein-coupled receptor 63): #1 103 inactive; #2 75 inactive; #3 80.4 inactive
Lipa (lipase A, lysosomal acid type): #1 92.1 inactive; #2 63 inactive; #3 76.5 inactive
Psmb7 (proteasome (prosome, macropain) subunit, beta type 7): #1 7.93 inactive; #2 6.02 inactive; #3 29.8 inactive

Called active (from the list above):
GFP, % of control, by gene symbol and reagent
5930403N24Rik (RIKEN cDNA 5930403N24 gene): #1 139 active
Grk1 (G protein-coupled receptor kinase 1): #1 122 active
Klhl28 (kelch-like 28): #3 130 active
Il1rap (interleukin 1 receptor accessory protein): #1 136 active

The list goes on:
GFP, % of control, by gene symbol and reagent
Bsg (basigin): #1 104 inactive; #2 88.2 inactive; #3 54.9 inactive
Scrt1 (scratch family zinc finger 1): #1 17.4 inactive; #2 54.7 inactive
Igbp1 (immunoglobulin (CD79A) binding protein 1): #1 63.6 inactive; #2 99.8 inactive; #3 135 active
Pcgf6 (polycomb group ring finger 6): #1 53 inactive; #2 73.6 inactive; #3 75.7 inactive
Or2y16 (olfactory receptor family 2 subfamily Y member 16): #1 121 active; #2 107 inactive; #3 69.8 inactive
Ralgds (ral guanine nucleotide dissociation stimulator): #1 101 inactive; #2 107 inactive; #3 50.1 inactive
Cdsn (corneodesmosin): #1 42.2 inactive; #2 77.4 inactive; #3 80.4 inactive
Or8b46 (olfactory receptor family 8 subfamily B member 46): #1 99 inactive; #2 65.4 inactive; #3 71.1 inactive
Vasp (vasodilator-stimulated phosphoprotein): #1 60.2 inactive; #2 102 inactive; #3 89.5 inactive
Ccdc121 (coiled-coil domain containing 121): #1 147 active; #2 70.7 inactive; #3 70.5 inactive
Slc39a4: #1 99.4 inactive; #2 41.2 inactive; #3 67.3 inactive
Sipa1l3 (signal-induced proliferation-associated 1 like 3): #1 55.9 inactive; #2 43.9 inactive; #3 63.1 inactive
Med18 (mediator complex subunit 18): #1 39.9 inactive; #2 74.5 inactive; #3 67.6 inactive
